Literature values as cited in patent US9463210B1, “Method for alleviating cravings and discomfort associated with smoking cessation8” (priority 2015, dated 2016).
Some of these results come from one statement about several compounds together.

Molecular target: T1, alanine-serine-cysteine transporter 1 (Asc-1) (Homo sapiens, UniProt Q9NS82)
T1 sequence (Q9NS82 1-523): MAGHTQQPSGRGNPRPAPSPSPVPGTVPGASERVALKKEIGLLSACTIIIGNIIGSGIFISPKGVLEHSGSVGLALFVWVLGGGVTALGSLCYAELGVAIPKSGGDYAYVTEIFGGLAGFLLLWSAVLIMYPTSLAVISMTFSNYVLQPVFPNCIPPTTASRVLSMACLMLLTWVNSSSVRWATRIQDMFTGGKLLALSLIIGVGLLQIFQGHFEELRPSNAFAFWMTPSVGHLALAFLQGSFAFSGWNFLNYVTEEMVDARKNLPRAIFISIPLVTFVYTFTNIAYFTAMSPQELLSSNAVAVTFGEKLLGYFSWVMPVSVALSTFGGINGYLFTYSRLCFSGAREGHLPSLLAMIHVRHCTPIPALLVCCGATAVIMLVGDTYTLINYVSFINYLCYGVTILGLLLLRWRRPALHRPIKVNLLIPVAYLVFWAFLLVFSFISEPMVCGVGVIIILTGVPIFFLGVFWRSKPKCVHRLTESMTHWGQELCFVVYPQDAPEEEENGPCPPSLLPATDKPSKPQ
T1 sequence (P08195 1-529 partner): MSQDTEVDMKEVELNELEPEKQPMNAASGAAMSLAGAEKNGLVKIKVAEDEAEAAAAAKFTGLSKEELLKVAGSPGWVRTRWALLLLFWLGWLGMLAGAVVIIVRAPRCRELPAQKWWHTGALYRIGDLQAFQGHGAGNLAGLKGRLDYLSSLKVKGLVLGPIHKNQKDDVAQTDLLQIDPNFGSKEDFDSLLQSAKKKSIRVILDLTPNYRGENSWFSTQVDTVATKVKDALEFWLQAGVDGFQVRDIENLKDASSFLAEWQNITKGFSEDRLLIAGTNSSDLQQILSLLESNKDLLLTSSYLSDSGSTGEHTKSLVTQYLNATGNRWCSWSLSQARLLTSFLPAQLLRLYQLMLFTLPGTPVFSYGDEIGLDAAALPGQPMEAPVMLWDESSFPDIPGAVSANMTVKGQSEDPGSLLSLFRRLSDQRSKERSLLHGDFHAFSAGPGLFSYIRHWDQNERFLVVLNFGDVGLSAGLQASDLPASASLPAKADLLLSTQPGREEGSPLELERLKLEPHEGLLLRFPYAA
Settings: Asc-1 transport affinity; cited from earlier work

With `N[C@H](CO)C(=O)O` [d-serine] as the compound, how does the Ki read?
Its Ki is 8 to 12 µM.
